Assay results as given in PMC4022105.
Results are given in words; binding and its absence hold for the method and conditions named. Binding seen in cells or lysates may run through a third protein. Some binding calls cover weakened binding; strength is not graded here.

Protein sequences, listed by entry. Tags and fused reporters are not part of them.
UniProt P61586: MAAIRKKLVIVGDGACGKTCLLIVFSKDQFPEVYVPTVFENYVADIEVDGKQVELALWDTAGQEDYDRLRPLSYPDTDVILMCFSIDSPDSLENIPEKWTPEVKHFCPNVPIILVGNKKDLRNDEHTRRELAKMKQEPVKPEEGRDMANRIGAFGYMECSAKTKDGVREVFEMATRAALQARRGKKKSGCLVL
UniProt P60953: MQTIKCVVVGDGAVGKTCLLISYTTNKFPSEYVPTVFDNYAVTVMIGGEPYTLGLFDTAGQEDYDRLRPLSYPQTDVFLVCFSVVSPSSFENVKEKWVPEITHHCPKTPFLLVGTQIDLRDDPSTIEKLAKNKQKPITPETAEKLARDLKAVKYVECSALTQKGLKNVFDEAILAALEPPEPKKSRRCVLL

What was measured:
[1] = target: GTP-bound RhoA, endogenous (human (endogenous in A431)) (UniProt P61586); assay: pull-down; glutathione beads with GST-Rhotekin-PBD used to pull down GTP-bound RhoA from lysates of A431-V and -D3 cells; pull-downs re-blotted with Dsg3 antibodies
[2] = target: GTP-bound Cdc42, endogenous (human (endogenous in A431)) (UniProt P60953); assay: pull-down; glutathione beads with GST-PAK-1 PBD used to pull down GTP-bound Rac1/Cdc42 from lysates of A431-V and -D3 cells; pull-downs re-blotted with Dsg3 antibodies

binding [1]: binds
binding [2]: binds
B1: human Dsg3 overexpressed in A431 cells (A431-D3) (protein, UniProt P32926 50-999)
chain: EWVKFAKPCREGEDNSKRNPIAKITSDYQATQKITYRISGVGIDQPPFGIFVVDKNTGDINITAIVDREETPSFLITCRALNAQGLDVEKPLILTVKILDINDNPPVFSQQIFMGEIEENSASNSLVMILNATDADEPNHLNSKIAFKIVSQEPAGTPMFLLSRNTGEVRTLTNSLDREQASSYRLVVSGADKDGEGLSTQCECNIKVKDVNDNFPMFRDSQYSARIEENILSSELLRFQVTDLDEEYTDNWLAVYFFTSGNEGNWFEIQTDPRTNEGILKVVKALDYEQLQSVKLSIAVKNKAEFHQSVISRYRVQSTPVTIQVINVREGIAFRPASKTFTVQKGISSKKLVDYILGTYQAIDEDTNKAASNVKYVMGRNDGGYLMIDSKTAEIKFVKNMNRDSTFIVNKTITAEVLAIDEYTGKTSTGTVYVRVPDFNDNCPTAVLEKDAVCSSSPSVVVSARTLNNRYTGPYTFALEDQPVKLPAVWSITTLNATSALLRAQEQIPPGVYHISLVLTDSQNNRCEMPRSLTLEVCQCDNRGICGTSYPTTSPGTRYGRPHSGRLGPAAIGLLLLGLLLLLLAPLLLLTCDCGAGSTGGVTGGFIPVPDGSEGTIHQWGIEGAHPEDKEITNICVPPVTANGADFMESSEVCTNTYARGTAVEGTSGMEMTTKLGAATESGGAAGFATGTVSGAASGFGAATGVGICSSGQSGTMRTRHSTGGTNKDYADGAISMNFLDSYFSQKAFACAEEDDGQEANDCLLIYDNEGADATGSPVGSVGCCSFIADDLDDSFLDSLGPKFKKLAEISLGVDGEGKEVQPPSKDSGYGIESCGHPIEVQQTGFVKCQTLSGSQGASALSTSGSVQPAVSIPDPLQHGNYLVTETYSASGSLVQPSTAGFDPLLTQNVIVTERVICPISSVPGNLAGPTQLRGSHTMLCTEDPCSRLI
